{"sequences": {"note": "Chains of the proteins cited; added tags and fusions are not shown. Lines headed by an entry give the natural chain unless they say otherwise; changes in a name come on top.", "UniProt P10636": "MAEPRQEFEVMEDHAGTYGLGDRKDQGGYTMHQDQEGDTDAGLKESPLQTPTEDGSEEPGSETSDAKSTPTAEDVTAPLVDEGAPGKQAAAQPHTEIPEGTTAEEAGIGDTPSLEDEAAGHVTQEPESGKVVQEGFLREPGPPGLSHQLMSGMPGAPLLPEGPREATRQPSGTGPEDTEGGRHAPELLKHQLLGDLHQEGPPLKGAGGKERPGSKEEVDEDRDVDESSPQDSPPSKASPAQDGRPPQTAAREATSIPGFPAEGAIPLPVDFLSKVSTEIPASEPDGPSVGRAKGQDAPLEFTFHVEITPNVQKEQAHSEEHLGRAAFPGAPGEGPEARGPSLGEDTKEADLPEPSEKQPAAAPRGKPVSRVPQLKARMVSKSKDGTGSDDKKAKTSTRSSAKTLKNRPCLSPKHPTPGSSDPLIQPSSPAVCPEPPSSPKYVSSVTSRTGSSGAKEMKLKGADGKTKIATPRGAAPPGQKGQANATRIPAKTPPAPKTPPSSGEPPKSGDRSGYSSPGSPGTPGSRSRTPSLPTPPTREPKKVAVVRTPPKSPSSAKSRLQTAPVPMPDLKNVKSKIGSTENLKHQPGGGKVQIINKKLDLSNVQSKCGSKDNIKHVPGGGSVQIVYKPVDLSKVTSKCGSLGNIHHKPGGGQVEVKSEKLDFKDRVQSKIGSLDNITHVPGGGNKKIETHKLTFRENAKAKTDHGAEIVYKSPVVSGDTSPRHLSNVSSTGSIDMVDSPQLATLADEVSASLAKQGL"}, "source": "patent US8093060B2", "about": "“Multisite phosphorylated peptide (protein) recognizing compound and detection method, imaging method, alzheimer's disease diagnosing method and reagent kit using the same” (Canon Kabushiki Kaisha, priority 2008, dated 2012)", "molecular_target": "T1, Tau2P (Homo sapiens, UniProt P10636)", "T1 construct": "made in house; host or cells: chemical solid-phase synthesis", "assay": "Job's plot of BODIPY-Zn(Dpa) and Tau2P", "assay_type": "binding", "details": "total concentration 5 μM", "note": "At least one structure is not confirmed: it was looked up by name or label, or the drawing left a doubt.", "data": [{"smiles": "CC1=C(c2ccc(CN(C)Cc3ccccn3)nc2)C(C)=[N+]2C1=C(c1cc(OCCOCCOCCO)cc(OCCOCCOCCO)c1)c1c(C)c(-c3ccc(CN(C)Cc4ccccn4)nc3)c(C)n1[B-]2(F)F.O=[N+]([O-])[O-].O=[N+]([O-])[O-].O=[N+]([O-])[O-].O=[N+]([O-])[O-].[Zn+2].[Zn+2]", "note": "[BODIPY-Zn(Dpa)]", "values": [{"measurement": "stoichiometric ratio of complex (Job's plot)", "result": "1:1"}]}]}
